Source: PMC2806952
These are yes or no findings as the source states them, for the method shown.

Sequences of proteins named here, by UniProt entry; tags and fusion partners are left off. Residues count along the entry.
fH10–15 (complement factor H CCP modules 10–15, residues 568–927) (P08603, residues 568-927): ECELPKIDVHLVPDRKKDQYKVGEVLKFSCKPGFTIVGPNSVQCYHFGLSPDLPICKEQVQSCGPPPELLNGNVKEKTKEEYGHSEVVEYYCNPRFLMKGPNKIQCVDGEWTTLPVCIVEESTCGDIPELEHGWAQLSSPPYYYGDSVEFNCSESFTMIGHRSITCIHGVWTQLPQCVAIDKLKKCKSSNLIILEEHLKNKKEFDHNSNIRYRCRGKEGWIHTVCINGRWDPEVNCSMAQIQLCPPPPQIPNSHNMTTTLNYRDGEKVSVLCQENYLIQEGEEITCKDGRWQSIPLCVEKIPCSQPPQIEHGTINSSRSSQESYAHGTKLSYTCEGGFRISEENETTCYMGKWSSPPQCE
fH11–14 (complement factor H CCP modules 11–14, residues 629–865) (P08603, residues 629-865): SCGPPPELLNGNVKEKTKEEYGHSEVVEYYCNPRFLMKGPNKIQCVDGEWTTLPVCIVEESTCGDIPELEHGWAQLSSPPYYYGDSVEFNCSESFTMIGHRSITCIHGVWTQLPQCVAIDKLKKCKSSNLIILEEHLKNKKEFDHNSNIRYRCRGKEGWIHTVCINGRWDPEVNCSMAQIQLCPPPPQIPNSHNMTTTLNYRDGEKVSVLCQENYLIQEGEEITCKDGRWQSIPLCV

Legend:
[1] = molecular target: fH11–14 (complement factor H CCP modules 11–14, residues 629–865) (human) (UniProt P08603); test: SAXS; 10 °C, 50 mM potassium phosphate pH 7.4; 0.7, 1.8 and 3.5 mg/ml (fH12–13), 0.7 and 1.6 mg/ml (fH11–14), 2.4, 5.1 and 10.5 mg/ml (fH10–15); molecular mass from forward scattering and hydrated particle volume; both purified
[2] = molecular target: fH11–14 (complement factor H CCP modules 11–14, residues 629–865) (human) (UniProt P08603); test: AUC; sedimentation velocity, 45,000 rpm, protein 0.2–0.4 mg/ml in PBS (pH 7.5), 293 K; c(s) analysis with SEDFIT; both purified
[3] = molecular target: fH10–15 (complement factor H CCP modules 10–15, residues 568–927) (human) (UniProt P08603); test: SAXS; 10 °C, 50 mM potassium phosphate pH 7.4; 0.7, 1.8 and 3.5 mg/ml (fH12–13), 0.7 and 1.6 mg/ml (fH11–14), 2.4, 5.1 and 10.5 mg/ml (fH10–15); molecular mass from forward scattering and hydrated particle volume; both purified
[4] = molecular target: fH10–15 (complement factor H CCP modules 10–15, residues 568–927) (human) (UniProt P08603); test: AUC; sedimentation velocity, 45,000 rpm, protein 0.2–0.4 mg/ml in PBS (pH 7.5), 293 K; c(s) analysis with SEDFIT; both purified

“fH11–14 (complement factor H CCP modules 11–14, residues 629–865) (from UniProt P08603 629-865) (domain or fragment)” was tested, and the binding [1] was “no binding (tested: 0.7 and 1.6 mg ml^(− 1))” and the binding [2] was “no binding (tested: 0.2–0.4 mg ml^(− 1))”.

In the case of “fH10–15 (complement factor H CCP modules 10–15, residues 568–927) (from UniProt P08603 568-927) (domain or fragment)”, the binding [3] is reported as “no binding (tested: 2.4, 5.1, and 10.5 mg ml^(− 1))” and the binding [4] is reported as “no binding (tested: 0.2–0.4 mg ml^(− 1))”.
